From publication PMC4873810
These are yes or no findings as the source states them, for the method shown. Binding seen in cells or lysates may run through a third protein. Some results given as binding are weak or reduced against the parent protein; the word gives no strength. Sequences can lack the tags named with a protein.

Legend:
[1] = target: T1, glypican 6 (Gpc6) HSPG, HA-tagged (UniProt Q9Y625); test: proximity ligation; Duolink in situ PLA on transfected Capan1, B16F10 and Panc1 cells, fixed in 4% PFA, non-permeabilised; primary antibodies α-FLAG (Scube2) and α-HA (Gpc6)
T1 sequence (chain, heparan sulfate chains (HSPG)): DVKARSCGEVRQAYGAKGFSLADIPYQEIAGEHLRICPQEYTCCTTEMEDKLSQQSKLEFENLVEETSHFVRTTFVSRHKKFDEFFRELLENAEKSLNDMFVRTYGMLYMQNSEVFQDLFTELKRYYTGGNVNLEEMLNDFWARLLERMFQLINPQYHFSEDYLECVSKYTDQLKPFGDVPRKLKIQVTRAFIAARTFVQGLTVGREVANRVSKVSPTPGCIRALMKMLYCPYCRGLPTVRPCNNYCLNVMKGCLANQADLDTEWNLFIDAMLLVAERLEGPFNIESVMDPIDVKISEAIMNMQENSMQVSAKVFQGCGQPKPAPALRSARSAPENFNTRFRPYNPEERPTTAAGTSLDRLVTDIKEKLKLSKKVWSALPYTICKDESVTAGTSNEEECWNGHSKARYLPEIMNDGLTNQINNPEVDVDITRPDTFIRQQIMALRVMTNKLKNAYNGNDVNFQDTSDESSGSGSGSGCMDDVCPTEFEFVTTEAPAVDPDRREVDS

[2] = target: T1, glypican 6 (Gpc6) HSPG, HA-tagged; test: as above; remark: listed apart in the source
[3] = target: T1, glypican 6 (Gpc6) HSPG, HA-tagged; test: proximity ligation; Duolink in situ PLA on transfected Bosc23 cells (for Scube2/Gpc6 also HeLa and MiaPaca2), fixed in 4% PFA, non-permeabilised; primary antibodies α-FLAG (Scube2), α-HA (Gpc6), α-Shh; 40 nm upper limit

binding [1]: binds weakly | binding [3]: binds
B1: Scube2 (signal peptide, CUB domain, epidermal growth factor (EGF)-like protein 2), full-length, FLAG-tagged (protein, UniProt Q9NQ36 32-999)
chain: VPPGRGRAAGPQEDVDECAQGLDDCHADALCQNTPTSYKCSCKPGYQGEGRQCEDIDECGNELNGGCVHDCLNIPGNYRCTCFDGFMLAHDGHNCLDVDECLENNGGCQHTCVNVMGSYECCCKEGFFLSDNQHTCIHRSEEGLSCMNKDHGCSHICKEAPRGSVACECRPGFELAKNQRDCILTCNHGNGGCQHSCDDTADGPECSCHPQYKMHTDGRSCLEREDTVLEVTESNTTSVVDGDKRVKRRLLMETCAVNNGGCDRTCKDTSTGVHCSCPVGFTLQLDGKTCKDIDECQTRNGGCDHFCKNIVGSFDCGCKKGFKLLTDEKSCQDVDECSLDRTCDHSCINHPGTFACACNRGYTLYGFTHCGDTNECSINNGGCQQVCVNTVGSYECQCHPGYKLHWNKKDCVEVKGLLPTSVSPRVSLHCGKSGGGDGCFLRCHSGIHLSSDVTTIRTSVTFKLNEGKCSLKNAELFPEGLRPALPEKHSSVKESFRYVNLTCSSGKQVPGAPGRPSTPKEMFITVEFELETNQKEVTASCDLSCIVKRTEKRLRKAIRTLRKAVHREQFHLQLSGMNLDVAKKPPRTSERQAESCGVGQGHAENQCVSCRAGTYYDGARERCILCPNGTFQNEEGQMTCEPCPRPGNSGALKTPEAWNMSECGGLCQPGEYSADGFAPCQLCALGTFQPEAGRTSCFPCGGGLATKHQGATSFQDCETRVQCSPGHFYNTTTHRCIRCPVGTYQPEFGKNNCVSCPGNTTTDFDGSTNITQCKNRRCGGELGDFTGYIESPNYPGNYPANTECTWTINPPPKRRILIVVPEIFLPIEDDCGDYLVMRKTSSSNSVTTYETCQTYERPIAFTSRSKKLWIQFKSNEGNSARGFQVPYVTYDEDYQELIEDIVRDGRLYASENHQEILKDKKLIKALFDVLAHPQNYFKYTAQESREMFPRSFIRLLRSKVSRFLRPYK
binding [2]: no binding (condition: in Capan1, B16F10 and Panc1 cells)
